PubChem BioAssay AID686938 – Drosophila RNAi Screening Center – 2013

Test: 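Looking for CRAC channel components and the factors controlling them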 (primary screen)
Cells: Drosophila S2R+ cells
Reagent: long dsRNA against Drosophila genes, about 0.25 µg dsRNA per well, roughly 10,000 cells
Duration: 5 days of knock-down before the calcium assay
Conditions: thapsigargin (SERCA pump blocker) to empty calcium stores; entry signal taken 4 min after adding it
Measurement: 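Per-well fluo-4 fluorescence in two replicates, unnormalised, measured in resting cells and 4 min after store depletion by the SERCA blocker thapsigargin; ratio of the two present in few wells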
Direction: calcium entry signal: higher = stronger calcium signal after store depletion; resting calcium signal: higher = higher resting calcium signal
Rule for the call: 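Called when the plate z-score of the entry-to-rest ratio, mean of duplicates, falls below −3; wells with low overall dye signal (Fmax z below −2) or more than five off-targets excluded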
Meaning of the calls: active = strongly reduced calcium entry; inactive = no strong reduction
In all, the deposit lists about 23,000 reagents; below is a random part of those that have a named target and a result. In the full data, 75 (0.33%) got an active call. 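Raw plate signals without normalisation; calls rest on plate z-scores that were not deposited; ratio present for only 364 wells.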 Entries without a mark were called inactive. Names joined by + are all predicted targets of the reagent. Not given: the dose of the treatment.

target gene,DRSC id,"calcium entry signal, replicate 1 (fluorescence units)","calcium entry signal, replicate 2 (fluorescence units)","resting calcium signal, replicate 1 (fluorescence units)","resting calcium signal, replicate 2 (fluorescence units)"
CG14006,DRSC02338,2.91e7,2.88e7,1.45e7,1.43e7
dlt (discs lost),DRSC08705,3.95e7,4.12e7,1.87e7,1.67e7
CG9519,DRSC20195,2.73e7,3.10e7,1.34e7,1.44e7
Rpp25 (Ribonuclease P/MRP subunit p25),DRSC05002,4.34e7,4.98e7,2.36e7,2.24e7
CG17746,DRSC08521,3.31e7,2.67e7,2.25e7,1.27e7
CG17746,DRSC23333,3.90e7,3.14e7,1.93e7,1.46e7
"E(spl)m8-HLH (Enhancer of split m8, helix-loop-helix)",DRSC16654,3.13e7,4.73e7,1.73e7,2.01e7
Gli (Gliotactin),DRSC03332,4.68e7,3.24e7,2.06e7,1.57e7
ND-B14.5B (NADH dehydrogenase (ubiquinone) B14.5 B subunit),DRSC00346,2.93e7,2.40e7,1.44e7,1.24e7
pb (proboscipedia),DRSC12409,2.23e7,4.38e7,1.14e7,1.94e7
pb (proboscipedia),DRSC12629,5.39e7,3.93e7,2.92e7,2.10e7
Fst (Frost),DRSC16491,4.08e7,4.77e7,1.87e7,2.23e7
Spn77Ba (Serpin 77Ba),DRSC10693,2.92e7,3.73e7,1.47e7,2.73e7
wrm1 + wrm2,DRSC11007,4.17e7,3.92e7,2.78e7,1.70e7
MED30 (Mediator complex subunit 30),DRSC08516,4.29e7,3.15e7,2.25e7,1.73e7
MED30 (Mediator complex subunit 30),DRSC23135,2.67e7,3.97e7,1.23e7,1.62e7
CG14205,DRSC19560,3.47e7,4.60e7,1.83e7,1.91e7
Spn28F (Serpin 28F),DRSC03615,3.30e7,4.63e7,1.45e7,1.89e7
CG31922,DRSC21703,3.33e7,3.11e7,1.99e7,1.46e7
CG5781,DRSC02893,4.20e7,2.83e7,1.84e7,1.36e7
CG13231,DRSC06351,1.95e7,3.89e7,1.04e7,1.52e7
Jwa,DRSC02048,4.74e7,,2.26e7,
CG12662,DRSC17865,2.76e7,2.93e7,1.41e7,1.39e7
CG31974,DRSC00522,3.88e7,3.72e7,1.99e7,1.76e7
CG17574,DRSC06681,3.52e7,7.99e7,1.88e7,3.00e7
wac (wee Augmin),DRSC08349,3.44e7,4.15e7,1.82e7,1.91e7
Cpr78E (Cuticular protein 78E),DRSC11807,2.99e7,4.40e7,1.39e7,1.88e7
FER (FER tyrosine kinase),DRSC12735,3.42e7,4.63e7,1.68e7,2.21e7
FER (FER tyrosine kinase),DRSC16673,2.59e7,2.50e7,1.40e7,1.41e7
CG4576,DRSC15604,2.83e7,4.65e7,1.50e7,6.19e7
GLS (Glutaminase),DRSC07261,3.69e7,4.02e7,1.68e7,1.92e7
Syb (Synaptobrevin),DRSC07559,3.86e7,3.82e7,1.99e7,2.13e7
Agpat3 (1-Acylglycerol-3-phosphate O-acyltransferase 3),DRSC10445,4.15e7,4.95e7,1.86e7,3.21e7
CG6878,DRSC10737,3.09e7,4.69e7,1.53e7,1.86e7
Mgat4a,DRSC09326,4.17e7,3.85e7,1.89e7,1.80e7
Mgat4a,DRSC11070,4.40e7,5.93e7,2.09e7,2.07e7
CG33278,DRSC10336,2.81e7,3.59e7,1.32e7,1.55e7
CG16890,DRSC01890,3.97e7,,1.78e7,
Snx1 (Sorting nexin 1),DRSC00531,4.69e7,4.90e7,2.14e7,2.08e7
BomS4 (Bomanin Short 4),DRSC22509,4.35e7,3.56e7,2.38e7,1.71e7

Targets listed so far whose target name starts with F or f:
target gene,DRSC id,"calcium entry signal, replicate 1 (fluorescence units)","calcium entry signal, replicate 2 (fluorescence units)","resting calcium signal, replicate 1 (fluorescence units)","resting calcium signal, replicate 2 (fluorescence units)"
Fst (Frost),DRSC16491,4.08e7,4.77e7,1.87e7,2.23e7
FER (FER tyrosine kinase),DRSC12735,3.42e7,4.63e7,1.68e7,2.21e7
FER (FER tyrosine kinase),DRSC16673,2.59e7,2.50e7,1.40e7,1.41e7
